Here are results for 29 compounds from PubChem BioAssay AID256 (DTP/NCI, 2004).

The test system of the assay is CD2F1 mice, L1210 leukemia ip, survival T/C. Briefly: NCI In Vivo Anticancer Drug Screen. Data for tumor model L1210 Leukemia (intraperitoneal) in CD2F1 (CDF1) mice. The conditions noted are these: higher T/C = longer survival. In short, it runs like this:
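Read-out first: treated-group measurement over vehicle-control measurement, expressed as a ratio. Animals bore a transplanted tumor line and were dosed with compound or vehicle.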

The mark [1] stands for this setting: T/C endpoint: mean survival time, dose: 400.0 mg/kg/injection, schedule: Q04DX003 (ip), vehicle: Klucel (hydroxypropylcellulose) (HPC).
Where [2] appears, read: T/C endpoint: mean survival time, dose: 400.0 mg/kg/injection, schedule: Q04DX002 (ip), vehicle: saline.
Setting [3] is: T/C endpoint: mean survival time, dose: 100.0 mg/kg/injection, schedule: Q01DX009 (ip), vehicle: saline with Tween-80.
Setting [4] is: T/C endpoint: mean survival time, dose: 200.0 mg/kg/injection, schedule: Q04DX003 (ip), vehicle: saline with Tween-80.
Where [5] appears, read: T/C endpoint: mean survival time, dose: 400.0 mg/kg/injection, schedule: Q04DX003 (ip), vehicle: saline with Tween-80.
[6] abbreviates: T/C endpoint: mean survival time, dose: 400.0 mg/kg/injection, schedule: Q01DX009 (ip), vehicle: saline with Tween-80.
Setting [7] is: T/C endpoint: mean survival time, dose: 200.0 mg/kg/injection, schedule: Q01DX001 (ip), vehicle: saline.
Setting [8] is: T/C endpoint: mean survival time, dose: 400.0 mg/kg/injection, schedule: Q01DX001 (ip), vehicle: saline.
Where [9] appears, read: T/C endpoint: mean survival time, dose: 50.0 mg/kg/injection, schedule: Q01DX001 (ip), vehicle: saline with Tween-80.
Setting [10] is: T/C endpoint: mean survival time, dose: 100.0 mg/kg/injection, schedule: Q01DX001 (ip), vehicle: saline with Tween-80.
Where [11] appears, read: T/C endpoint: mean survival time, dose: 200.0 mg/kg/injection, schedule: Q01DX001 (ip), vehicle: saline with Tween-80.
Where [12] appears, read: T/C endpoint: mean survival time, dose: 400.0 mg/kg/injection, schedule: Q01DX001 (ip), vehicle: saline with Tween-80.
The mark [13] stands for this setting: T/C endpoint: mean survival time, dose: 200.0 mg/kg/injection, schedule: Q01DX009 (ip), vehicle: saline with Tween-80.
Where [14] appears, read: T/C endpoint: mean survival time, dose: 12.5 mg/kg/injection, schedule: Q01DX005 (ip), vehicle: other.
Where [15] appears, read: T/C endpoint: mean survival time, dose: 25.0 mg/kg/injection, schedule: Q01DX005 (ip), vehicle: other.
Where [16] appears, read: T/C endpoint: mean survival time, dose: 50.0 mg/kg/injection, schedule: Q01DX005 (ip), vehicle: other.
[17] abbreviates: T/C endpoint: mean survival time, dose: 100.0 mg/kg/injection, schedule: Q01DX005 (ip), vehicle: other.
The mark [18] stands for this setting: T/C endpoint: mean survival time, dose: 200.0 mg/kg/injection, schedule: Q01DX005 (ip), vehicle: other.
Where [19] appears, read: T/C endpoint: mean survival time, dose: 75.0 mg/kg/injection, schedule: Q01DX001 (ip), vehicle: other.

The list is a part of this screen's results and no random one: it is rich in T/C values a quarter to a half above the control, in often repeated tests (any T/C) and in doses without a T/C. Further doses and runs are listed elsewhere. T/C gives the treated animals as a percentage of the vehicle group. Some entries give survivors of the animals treated and no T/C: the source files T/C as zero there, which appears to mark a toxic dose or a test without result, not a measured value. Some survivor counts are full or nearly so, which does not show that the dose was tolerated: the source hardly ever lists a survival T/C far under the control, and the zero likely stands for such cases as well. Survivors were counted at the toxicity check, usually on the fifth day, unless a day is given; later deaths do not show. Schedule codes are those of the source, read here as Q, the interval in days (D) or hours (H), X, the number of doses. Some doses were run more than once; the results are listed from low to high. Some molecules as drawn cover several salts, stereoisomers or complexes of the source; a dose is that of the sample tested. Where survival is the endpoint, this PubChem deposit counts one and a half times the control or more as active, and values a quarter to a half above the control carry no call in these data; other NCI protocols may use other cut-offs. Some T/C values carry the count of animals alive at the toxicity check (mostly the fifth day); without a count, all were alive then.

Take `CC1(C)OC2C(COC(=O)CI)OC(n3ccc(=O)[nH]c3=O)C2O1` (stereo not given): the survivor count (T/C endpoint: median survival time, dose: 100.0 mg/kg/injection, schedule: Q01DX005 (ip), vehicle: Klucel (hydroxypropylcellulose) (HPC)) was 0 of 6 and the survivor count (T/C endpoint: median survival time, dose: 200.0 mg/kg/injection, schedule: Q01DX005 (ip), vehicle: Klucel (hydroxypropylcellulose) (HPC)) was 0 of 6.
For `CC(C)c1ccccc1NC1=NCCO1`, the survivor count under setting [1] is 1 of 6.
Regarding `COc1cc(N=C(N)N=C(N)N)c2ncccc2c1`, under setting [2], the survivor count is 0 of 3.
Take `CCCCCCCCCCCCOC(=O)C[n+]1cccc(C(=O)Nc2ccccc2)c1`: the survivor count is listed as 3 of 6 (T/C endpoint: mean survival time, dose: 50.0 mg/kg/injection, schedule: Q01DX009 (ip), vehicle: saline with Tween-80); 3 of 6 under setting [3]; 1 of 6 under setting [4]; 0 of 6 under setting [5].
For `O=c1[nH]cnc2[nH]ncc12`, the survivor count is reported as 1 of 6 under setting [6] and 0 of 6 (T/C endpoint: median survival time, dose: 400.0 mg/kg/injection, schedule: Q01DX009 (ip), vehicle: suspension in saline).
For the compound `O=C(O)c1ccccc1.[Cu+2]`, the survivor count is on record as 0 of 6 (T/C endpoint: mean survival time, dose: 100.0 mg/kg/injection, schedule: Q01DX001 (ip), vehicle: saline); 0 of 6 under setting [7]; 0 of 6 under setting [8].
In the case of `O=[N+]([O-])/C=C\c1cc2c3c(c1)CCCN3CCC2`, the survivor count is 1 of 6 under setting [9]; 0 of 6 under setting [10]; 0 of 6 and 1 of 6 under setting [11]; 0 of 6 and 1 of 6 under setting [12].
With `CN(C)Cc1ccccc1`, under setting [12], the survivor count is given as 0 of 6.
Consider `COC(=O)c1ncn(C2OC(COC(=O)c3ccccc3)C(OC(=O)c3ccccc3)C2OC(=O)c2ccccc2)c1C(=O)OC` (stereo not given), for which the survivor count reads like this: (T/C endpoint: median survival time, dose: 17.5 mg/kg/injection, schedule: Q01DX005 (ip), vehicle: distilled water + Tween-80) 6 of 6; (T/C endpoint: median survival time, dose: 70.0 mg/kg/injection, schedule: Q01DX005 (ip), vehicle: distilled water + Tween-80) 5 of 6.
On to `O=S(c1ccc(O)cc1)c1ccc(O)cc1`, for which the survivor count under setting [13] is recorded as 2 of 3.
`OC1CCCCCCCCC1Cl` (stereo not given): the survivor count reads like this: under setting [13], 5 of 6; under setting [6], 0 of 6.
Turning to `Oc1ccc(Cl)cc1Cn1ccnc1`, the survivor count under setting [2] is 0 of 3 and 1 of 6.
For `CC(=O)OC1OC(C)C(OC(C)=O)C(OC(C)=O)C1NC(=O)N(CCCl)N=O` (stereo not given), the survivor count is, setting by setting: (T/C endpoint: mean survival time, dose: 60.0 mg/kg/injection, schedule: Q01DX001 (ip), vehicle: saline with Tween-80) 8 of 10; (T/C endpoint: mean survival time, dose: 90.0 mg/kg/injection, schedule: Q01DX001 (ip), vehicle: saline with Tween-80) 7 of 10; (T/C endpoint: mean survival time, dose: 134.0 mg/kg/injection, schedule: Q01DX001 (ip), vehicle: saline with Tween-80) 9 of 10; under setting [11], 2 of 10.
On to `O=[N+]([O-])c1cc(S(=O)(=O)F)ccc1Cl`, for which the survivor count by setting is: under setting [3], 3 of 3; under setting [13], 0 of 3.
As to `O=Cc1cc(Cl)ccc1O`, the survivor count under setting [6] was 0 of 6 and the survivor count under setting [5] was 4 of 6.
Take `CCCCCCC[CH2][Sn]1([CH2]CCCCCCC)[O]C2C(CO)OC(n3ccc4c(N)ncnc43)C2[O]1` (stereo not given): the survivor count is, setting by setting: under setting [14], 1 of 6 and 4 of 6; under setting [15], 0 of 6; under setting [16], 0 of 6; under setting [17], 0 of 6; under setting [18], 0 of 6.
For `O=C(C=C(C(F)(F)Cl)C(F)(F)Cl)c1cccs1`, the survivor count is listed as 0 of 6 (T/C endpoint: mean survival time, dose: 100.0 mg/kg/injection, schedule: Q04DX003 (ip), vehicle: saline with Tween-80); 0 of 6 under setting [4]; 0 of 6 under setting [5].
`c1ccc(-c2cc3ccccc3c(-c3ccccc3)c2-c2ccccc2)cc1`: under setting [19], the survivor count is reported as 6 of 6.
For the compound `CC1(C)N=C(N)N=C(N)N1c1cccc(CCCCc2cccc(S(=O)(=O)F)c2)c1`, the survivor count by setting is: (T/C endpoint: mean survival time, dose: 100.0 mg/kg/injection, schedule: Q04DX003 (ip), vehicle: saline sonified) 1 of 6; (T/C endpoint: mean survival time, dose: 200.0 mg/kg/injection, schedule: Q04DX003 (ip), vehicle: saline sonified) 5 of 6; (T/C endpoint: mean survival time, dose: 400.0 mg/kg/injection, schedule: Q04DX003 (ip), vehicle: saline sonified) 0 of 6.
As for `CC1(C)C(N2CCCCC2)CS1(=O)=O` (stereo not given), the survivor count by setting is: (T/C endpoint: mean survival time, dose: 100.0 mg/kg/injection, schedule: Q04DX003 (ip), vehicle: saline) 2 of 6; under setting [7], 0 of 6; under setting [8], 0 of 6.
Take `Cc1c2c[n+](CCCCCCCC[n+]3ccc4c(C)c5c(c(C)c4c3)c3ccccc3n5CCO)ccc2c(C)c2c1c1ccccc1n2CCO`: the T/C (T/C endpoint: mean survival time, dose: 3.13 mg/kg/injection, schedule: Q04DX003 (ip), vehicle: distilled water + Tween-80) is 132 and 137 % of control [5 of 6 alive]; the T/C (T/C endpoint: mean survival time, dose: 12.5 mg/kg/injection, schedule: Q04DX003 (ip), vehicle: distilled water + Tween-80) was 132 % of control. Besides, the survivor count was 3 of 6 and 6 of 6 (T/C endpoint: mean survival time, dose: 25.0 mg/kg/injection, schedule: Q04DX003 (ip), vehicle: distilled water + Tween-80); 4 of 6 (T/C endpoint: mean survival time, dose: 50.0 mg/kg/injection, schedule: Q04DX003 (ip), vehicle: distilled water + Tween-80).
As for `O=C1C=C(N2C3C4CCC(C4)C32)C(=O)C=C1c1ccccc1` (stereo not given), under setting [12], the survivor count was 3 of 6.
Turning to `C1CC[N-]CC1.CC(=N\O)/C(C)=N/O.CC(=N\O)/C(C)=N/O.[CH2-]CCN1CCOCC1.[Co+2]`, the survivor count under setting [3] is on record as 3 of 6.
With `CC(C)=CC(=O)CC(O)(C(F)(F)F)C(F)(F)Cl` (stereo not given), the survivor count under setting [1] is recorded as 3 of 6.
As for `CC1=NN(c2ccccc2)C(=O)/C1=C/N(C)C`, for the setting “T/C endpoint: mean survival time, dose: 25.0 mg/kg/injection, schedule: Q04DX003 (ip), vehicle: saline with Tween-80”, the survivor count is listed as 1 of 6.
Turning to `CC(C)[S-].CC(C)[S-].[Pt+2].c1ccc([PH+](c2ccccc2)c2ccccc2)cc1.c1ccc([PH+](c2ccccc2)c2ccccc2)cc1`, the survivor count was 6 of 6 (T/C endpoint: mean survival time, dose: 25.0 mg/kg/injection, schedule: Q04DX003 (sc), vehicle: distilled water + Tween-80) and 6 of 6 (T/C endpoint: mean survival time, dose: 100.0 mg/kg/injection, schedule: Q04DX003 (sc), vehicle: distilled water + Tween-80).
As to `CCC(/C=C1\[Se]c2ccc(C)cc2N1CC)=C\c1[se]c2ccc(C)cc2[n+]1CC`, the survivor count under setting [19] is listed as 0 of 6; the survivor count (T/C endpoint: mean survival time, dose: 150.0 mg/kg/injection, schedule: Q01DX001 (ip), vehicle: other) is listed as 0 of 6; the survivor count (T/C endpoint: mean survival time, dose: 300.0 mg/kg/injection, schedule: Q01DX001 (ip), vehicle: other) was 0 of 6.
As for `CC1(C)CC(=O)C2=C(C1)OC1(O)CC(C)(C)CC(=O)C1C2c1ccccc1[N+](=O)[O-]` (stereo not given), the survivor count is, setting by setting: (T/C endpoint: mean survival time, dose: 25.0 mg/kg/injection, schedule: Q01DX001 (ip), vehicle: saline with Tween-80) 6 of 6; under setting [9], 6 of 6; under setting [10], 5 of 6; under setting [11], 3 of 6; under setting [12], 0 of 6.
Turning to `Cn1cnc(C(=N)[Se])c1N`, the survivor count is, setting by setting: under setting [14], 3 of 6; under setting [15], 2 of 6; under setting [16], 0 of 6; under setting [17], 0 of 6; under setting [18], 0 of 6.
